{
  "sequences": {"note": "Protein sequences, listed by entry. Tags and fused reporters are not part of them. Residues count along the entry.", "UniProt Q02763, 817-1101": "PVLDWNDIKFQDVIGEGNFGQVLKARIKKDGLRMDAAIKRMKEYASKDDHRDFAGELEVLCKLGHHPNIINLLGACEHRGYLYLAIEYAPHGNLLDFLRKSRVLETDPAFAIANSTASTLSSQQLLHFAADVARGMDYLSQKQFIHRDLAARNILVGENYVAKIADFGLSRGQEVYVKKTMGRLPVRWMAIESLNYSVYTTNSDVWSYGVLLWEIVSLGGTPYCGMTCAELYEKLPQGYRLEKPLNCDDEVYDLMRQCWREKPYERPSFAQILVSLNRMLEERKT"},
  "source": "patent US9457019B2",
  "about": "“Methods for inhibiting tie-2 kinase useful in the treatment of cancer” (Deciphera Pharmaceuticals, LLC, priority 2013, dated 2016)",
  "target": "T1, phosphorylated TIE2 (pTIE2) kinase (Homo sapiens, UniProt Q02763)",
  "T1 construct": "purchased Life Technologies",
  "assay": "Biochemical assay for pTIE2 (pyruvate kinase/lactate dehydrogenase coupled, ADP production)",
  "settings": "at <0.1 μM concentration",
  "note": "Some results were stated once for a whole list of compounds, not compound by compound.",
  "data": [
    {"smiles": "CNC(=O)c1cc(Oc2ccc(NC(=O)Nc3cc(C(C)(C)C)nn3-c3ccc4ncccc4c3)c(F)c2)ccn1.Cl.Cl", "note": "[1-(3-tert-butyl-1-(quinolin-6-yl)-1H-pyrazol-5-yl)-3-(2-fluoro-4-(2-(methylcarbamoyl)pyridin-4-yloxy)phenyl)urea bis-hydrochloric acid salt]", "values": [
      {"measurement": "inhibition of pTIE2 kinase", "result": "> 50", "unit": "%"}
    ]}
  ]
}
